Patent publication US20050053985A1
These are yes or no findings as the source states them, for the method shown. In cells and extracts the contact can be indirect. Some binding calls cover weakened binding; strength is not graded here. Where a sequence is shown, tags or fusion partners need not be part of it.

Key:
[1] = target: T1, CstF64 (64 kD subunit 2) (human) (UniProt P33240); assay: co-purification (anti-Flag then Ni beads), SDS-PAGE, Western blot
T1 sequence (looked up): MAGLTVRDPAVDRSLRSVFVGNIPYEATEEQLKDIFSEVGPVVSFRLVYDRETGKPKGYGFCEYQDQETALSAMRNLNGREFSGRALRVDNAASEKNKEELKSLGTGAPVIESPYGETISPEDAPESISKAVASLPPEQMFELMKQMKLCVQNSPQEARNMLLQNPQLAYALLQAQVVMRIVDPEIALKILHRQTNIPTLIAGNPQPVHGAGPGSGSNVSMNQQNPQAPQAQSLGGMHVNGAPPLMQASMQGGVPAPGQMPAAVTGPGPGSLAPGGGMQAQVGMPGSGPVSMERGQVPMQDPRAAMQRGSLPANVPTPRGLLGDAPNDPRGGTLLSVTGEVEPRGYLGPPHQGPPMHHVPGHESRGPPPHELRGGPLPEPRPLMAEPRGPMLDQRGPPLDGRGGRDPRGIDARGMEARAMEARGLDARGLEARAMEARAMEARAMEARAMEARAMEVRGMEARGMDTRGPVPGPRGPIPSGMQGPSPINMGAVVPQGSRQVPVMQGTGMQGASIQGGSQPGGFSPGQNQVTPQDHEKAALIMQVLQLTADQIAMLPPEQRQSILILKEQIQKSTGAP

Symplekin (human) = target: T2, Symplekin (human) (UniProt Q92797); assay: as above
T2 sequence (looked up): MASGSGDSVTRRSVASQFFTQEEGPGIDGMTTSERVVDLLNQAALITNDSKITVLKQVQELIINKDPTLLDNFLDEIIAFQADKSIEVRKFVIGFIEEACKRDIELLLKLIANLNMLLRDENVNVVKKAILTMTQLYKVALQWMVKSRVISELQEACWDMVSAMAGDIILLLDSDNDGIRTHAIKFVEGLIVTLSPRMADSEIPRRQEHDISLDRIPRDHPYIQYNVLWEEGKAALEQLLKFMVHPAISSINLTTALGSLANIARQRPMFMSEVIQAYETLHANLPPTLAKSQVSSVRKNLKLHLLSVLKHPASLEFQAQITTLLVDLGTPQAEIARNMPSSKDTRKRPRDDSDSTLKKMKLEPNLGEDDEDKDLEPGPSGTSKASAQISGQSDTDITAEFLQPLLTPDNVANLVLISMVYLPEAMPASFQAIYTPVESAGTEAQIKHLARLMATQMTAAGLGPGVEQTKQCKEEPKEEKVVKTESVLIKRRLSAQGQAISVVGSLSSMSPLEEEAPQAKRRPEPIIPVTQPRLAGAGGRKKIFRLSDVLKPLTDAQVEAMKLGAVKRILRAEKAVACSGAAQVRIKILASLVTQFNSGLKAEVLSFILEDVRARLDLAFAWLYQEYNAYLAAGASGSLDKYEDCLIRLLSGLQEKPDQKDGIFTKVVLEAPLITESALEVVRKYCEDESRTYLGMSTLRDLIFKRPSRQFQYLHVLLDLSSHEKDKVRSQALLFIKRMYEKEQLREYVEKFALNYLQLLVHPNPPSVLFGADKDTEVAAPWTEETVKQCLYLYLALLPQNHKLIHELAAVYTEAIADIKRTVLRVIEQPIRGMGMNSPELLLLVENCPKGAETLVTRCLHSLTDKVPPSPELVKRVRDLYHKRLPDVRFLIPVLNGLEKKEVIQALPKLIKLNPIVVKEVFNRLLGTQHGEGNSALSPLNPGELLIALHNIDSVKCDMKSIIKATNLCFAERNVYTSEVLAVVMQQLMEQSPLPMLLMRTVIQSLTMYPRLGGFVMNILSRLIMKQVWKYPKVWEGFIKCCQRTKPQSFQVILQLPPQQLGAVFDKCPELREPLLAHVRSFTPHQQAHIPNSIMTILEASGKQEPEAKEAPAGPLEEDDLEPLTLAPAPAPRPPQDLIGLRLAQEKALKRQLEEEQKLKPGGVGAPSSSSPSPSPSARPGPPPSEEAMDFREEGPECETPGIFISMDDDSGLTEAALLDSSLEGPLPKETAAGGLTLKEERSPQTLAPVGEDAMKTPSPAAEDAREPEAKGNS

HsSen2 (human) = target: T3, HsSen2 (human) (UniProt Q8NCE0); assay: co-purification (anti-Flag then Ni beads), SDS-PAGE, silver staining
T3 sequence (looked up): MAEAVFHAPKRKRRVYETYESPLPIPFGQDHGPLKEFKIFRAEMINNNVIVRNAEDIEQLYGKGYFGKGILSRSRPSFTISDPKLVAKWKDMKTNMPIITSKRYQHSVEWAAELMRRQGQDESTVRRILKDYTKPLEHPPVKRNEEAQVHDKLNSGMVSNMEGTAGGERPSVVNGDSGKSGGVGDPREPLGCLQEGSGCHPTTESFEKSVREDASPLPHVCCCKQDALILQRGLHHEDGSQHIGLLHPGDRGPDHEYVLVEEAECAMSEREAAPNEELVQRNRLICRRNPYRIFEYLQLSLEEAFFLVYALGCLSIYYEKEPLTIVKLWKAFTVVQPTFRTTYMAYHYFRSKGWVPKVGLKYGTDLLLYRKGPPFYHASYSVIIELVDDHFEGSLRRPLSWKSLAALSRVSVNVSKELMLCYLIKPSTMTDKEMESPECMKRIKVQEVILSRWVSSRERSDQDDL

HsSen54 (human) = target: T4, HsSen54 (human) (UniProt Q7Z6J9); assay: as above
T4 sequence (looked up): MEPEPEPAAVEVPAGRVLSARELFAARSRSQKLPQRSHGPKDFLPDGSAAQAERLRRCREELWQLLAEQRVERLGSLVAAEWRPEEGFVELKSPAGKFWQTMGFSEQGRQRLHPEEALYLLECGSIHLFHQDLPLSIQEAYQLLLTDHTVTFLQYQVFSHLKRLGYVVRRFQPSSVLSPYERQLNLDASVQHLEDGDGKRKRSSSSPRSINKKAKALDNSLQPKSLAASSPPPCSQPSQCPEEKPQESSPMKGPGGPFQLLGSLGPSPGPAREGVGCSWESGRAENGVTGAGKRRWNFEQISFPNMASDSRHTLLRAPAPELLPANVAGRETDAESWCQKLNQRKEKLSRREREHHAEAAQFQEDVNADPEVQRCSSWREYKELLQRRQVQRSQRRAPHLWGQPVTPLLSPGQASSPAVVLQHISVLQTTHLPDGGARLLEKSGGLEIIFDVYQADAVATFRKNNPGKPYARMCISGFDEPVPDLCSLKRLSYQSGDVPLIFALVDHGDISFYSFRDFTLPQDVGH

Measured: binding

B1: His-Flag-HsClp1 (protein, human, UniProt Q92989 1-425, looked up, not shown: small tags and cut ends)
chain: MGEEANDDKKPTTKFELERETELRFEVEASQSVQLELLTGMAEIFGTELTRNKKFTFDAGAKVAVFTWHGCSVQLSGRTEVAYVSKDTPMLLYLNTHTALEQMRRQAEKEEERGPRVMVVGPTDVGKSTVCRLLLNYAVRLGRRPTYVELDVGQGSVSIPGTMGALYIERPADVEEGFSIQAPLVYHFGSTTPGTNIKLYNKITSRLADVFNQRCEVNRRASVSGCVINTCGWVKGSGYQALVHAASAFEVDVVVVLDQERLYNELKRDLPHFVRTVLLPKSGGVVERSKDFRRECRDERIREYFYGFRGCFYPHAFNVKFSDVKIYKVGAPTIPDSCLPLGMSQEDNQLKLVPVTPGRDMVHHLLSVSTAEGTEENLSETSVAGFIVVTSVDLEHQVFTVLSPAPRPLPKNFLLIMDIRFMDLK
binds: all assays above
